# Assay results reported in the supplement of paper PMC10338343.
# ± gives the standard deviation. This is a selection; strong and weak results do not stand in their true shares. The uncertainty is large for many entries.
# Test system: MIWI (PIWIL1) piRISC loaded with Kctd7 piRNA (30 nt)
# Test: pre-steady-state target cleavage rate (min^-1); MIWI and MILI are mouse PIWI proteins and EfPiwi is from a freshwater sponge; tags in brackets are library labels; higher = faster piRNA-guided slicing of the target
# Settings: guide: Kctd7 piRNA 5'p-UGUUAAUCUCUCAGAGAAGGUGACAGUGAU; auxiliary factor: 500 nM mouse GTSF1
# Procedure, shortened: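 The method was Cleave-'n-Seq, in which uncleaved targets from a transcribed, DNA-blocked target RNA library were sequenced after exposure to active affinity-purified piRISC carrying one synthetic guide, with or without GTSF1 partner protein. Reactions contained 0.1 nM library, 1 nM piRISC and, where present, 500 nM GTSF1 in HEPES–potassium acetate buffer at 33 °C for 0–8 or 0–960 min. Reads were normalised to depth and to weakly complementary targets, three trials were pooled, and k3 was capped at 0.0001 min^-1. The pre-steady-state cleavage rate came from a burst-and-steady-state fit.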
row,Sequence,pre-steady-state target cleavage rate
1,UAGUGACACACCUUCAGAGAGAGAUUAUGA,0.000968 ± 0.017
2,UACACUGUCACCUUCUCUGAGUCAUUAAGA,0.00199 ± 0.0045
3,UAGUGACAGUCCUUCUUCUGAGAGAUUAACA,0.00178 ± 0.005
4,UAGACUGUCACCAAGUCUGAGAGAUAUUGA,0.000349 ± 0.0097
5,UAGUGACACACCUUCUCUGAGAGAAAUUGA [g7:g22:cont:t1A],0.00186 ± 0.0067
6,UAGUGACAGACCUACUCUGAGAGAUUUUGA,0.000173 ± 0.038
7,UAGUGACAGACGUUCUCUCAGAGAUUAACA,0.000737 ± 0.014
8,UACACUGUCACCUUCUCUGACUGAUUUUGA,0.00172 ± 0.0065
9,UAGUGACACACCUUCUCUGAGACUUUAAGA,0.000295 ± 0.017
10,UAGUGACAGUGGUUCUCGAGAGAUUAACA,0.000943 ± 0.01
11,UAGAGUGUCACCUACUCUGAGAGAUUAACA,0.765 ± 0.042
12,UAGACUGUCACCUUCUCUGACUCAUUAACA,0.00133 ± 0.0037
13,UAGUGACAGACCUUCACUGAGAGAUAAACA,0.0224 ± 0.007
14,UAGUGUGUCACCUUCUCUGAGACAUAUUGA,0.00162 ± 0.0057
15,UAGUGACAGUGGAACUCUGAGUGAUUAAGA,0.000732 ± 0.018
16,UAGUGACAGACCUUCUCUCAGAGAUAAACA,0.00249 ± 0.0048
17,UAGUGACAGUCGUUCUCUGAGUGAUUAACA,0.000224 ± 0.021
18,UAGUGACAGUCCUUCUCUCGAGAGAUUAACA,0.00103 ± 0.0091
19,UAGACUGUACACCUUCUCUGAGAGAUUAACA,0.779 ± 0.055
20,UAGUGACACACCUUGUCUGAGAGAAUAACA,0.00451 ± 0.0047

row,Sequence,pre-steady-state target cleavage rate
1,UAGUGACACACCUUCUCUCUGAGAUUUUGA,0.000764 ± 0.0084
2,UAGUGACAGUGGAAGAGAGACAGAUUAACA,0.000347 ± 0.017
3,UAGUGACAGACCUUCUCAGUGAGAUUAACA,0.000544 ± 0.018
4,UAGUGACAGACCAUCUCUGAGAGAUUUUGA,0.000496 ± 0.011
5,UUCACUGUCUCCUUCUCUGAGAGAUUAACA,0.685 ± 0.036
6,UUCACUGUCACCUCUCUCUGAGAGAUUAACA,0.289 ± 0.022
7,UAGUGACAGACCUUCUCUGAGACAAUAACA,0.000848 ± 0.008
8,UAGUGACAGACCUUCUCUGACUCAUUAAGA,0.000416 ± 0.021
9,UAGUGACAGACCUACACUGAGAGAUUAACA,0.0013 ± 0.009
10,UAGUGAGUCACCUUCUCUGUCUGAUUAACA,0.00234 ± 0.0051
11,UAGUGUGUGACCUUCUCUGAGAGAUUUUGA,0.00158 ± 0.006
12,UAGUGACAGUCCUUGUCUGAGAGAAUAACA,0.00106 ± 0.009
13,UAGUGACAGUGCUUCUCAUGAGAGAUUAACA,0.000634 ± 0.011
14,UAGUGACAGACCUUCUCUGACUCAUUAUGA,0.000405 ± 0.016
15,UAGACUGUGUCCUUCUCUGAGAGAUAUUGA,0.000795 ± 0.0094
16,UAGUCUGUCACCUUCUCUGAGACAUUAUGA,0.00346 ± 0.004
17,UAGUGUGUCACCUUCUGACAGAGAUUUUGA,0.00114 ± 0.011
18,UUCACUGUCACCUUCUCUGACUGAUUUUGA,0.00183 ± 0.0043
19,UAGUGACAGUGGAACUCUGAGAGAUUAACU [g2:g16:cont:t1U],0.000111 ± 0.048

# Part of the list above, tab-delimited:
row	Sequence	pre-steady-state target cleavage rate
18	UAGUGACAGUCCUUCUCUCGAGAGAUUAACA	0.00103 ± 0.0091
12	UAGUGACAGUCCUUGUCUGAGAGAAUAACA	0.00106 ± 0.009
